Source: patent US20190262307A1, “IGURATIMOD AS AN MIF INHIBITOR” (THE FEINSTEIN INSTITUTE FOR MEDICAL RESEARCH, priority 2016, published 2019)
At least one structure is not confirmed: it was looked up by name or label, or the drawing left a doubt.

Columns and labels:
RAW 264.7 cells = assay: Glucocorticoid synergy in vitro, RAW 264.7; format: cell-based, mouse; conditions: 100 μM T-614 or 50 nM dexamethasone, 0.1 ng/mL LPS 4 h
[1] = tested on: adherence-purified human peripheral blood monocytes; assay: Glucocorticoid synergy in vitro, adherence-purified monocytes; format: cell-based; conditions: 100 μM T-614 or 50 nM dexamethasone, 1 ng/mL LPS 16 h
Procedure: Glucocorticoid Synergy in vitro: The methods of Roger et al. and Kerschbaumer et al. were adapted for these experiments (17, 21). […] Cell-free supernatants were collected and analyzed immediately with a murine TNFα ELISA at a 1:10 dilution. THP-1 cells were plated at a density of 2×10^5 cells/well in a 96-well plate and used the same day with the same treatment conditions as RAW 264.7 cells, except that THP-1 cells were incubated with LPS for 16 hours prior to isolation of cell-free supernatants. Supernatants were analyzed using a human TNFα ELISA at a 1:10 dilution. Human peripheral blood mononuclear cells isolated by adherence (described above) were plated at a density of 2×10^5 cells/well in a 96-well plate and used the same day with the same treatment conditions as THP-1 cells. Supernatants were analyzed using a human TNFα ELISA at a 1:20 dilution. […] Cells were treated under the same conditions as THP-1 cells and supernatants were analyzed using a human TNFα ELISA at a 1:10 dilution.
For all above experiments, cytotoxicity was assessed using an MTT assay (1-2 hour incorporation); no significant cytotoxicity effects were observed under any treatment conditions unless otherwise noted.

SMILES: C[C@@H]1C[C@H]2[C@@H]3CCC4=CC(=O)C=C[C@]4(C)[C@@]3(F)[C@@H](O)C[C@]2(C)[C@@]1(O)C(=O)CO [dexamethasone]
- LPS-induced TNFα release, individual pretreatment (RAW 264.7 cells): significantly attenuated TNFα release
- LPS-induced TNFα release, individual treatment [1]: individually attenuate LPS-induced TNFα release
